According to PubChem BioAssay AID493014 (National Center for Advancing Translational Sciences (NCATS), 2011):
This is one part of the list. The main result of the screen is listed elsewhere. These columns were measured beside it and carry no call. Compounds called inactive in the main read-out are mostly missing here. Potencies come from curve fits of mixed quality, noted in brackets.

Assay: qHTS Assay to Find Inhibitors of Chronic Active B-Cell Receptor Signaling
Details: ABC-DLBCL IkBa-CBG/CBR reporter, luminescence ratio (green luciferase fused to IkBa over red control in TMD8 lymphoma cells), 4 h
Procedure, shortened: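 TMD8 human ABC-DLBCL cells with doxycycline-inducible IκBα–green luciferase fusion and unfused red luciferase, in 0.5% FBS medium; compounds up to 46 uM, 4 h at 37C. Green/red luminescence ratio, filter-overlap corrected, fitted to concentration-response curves.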

[1] = measured here: CBR red luminescence, cell number
[2] = measured here: IkBa-CBG green luminescence

Compound	AC50 [1]	AC50 [2]
Cn1ncc(Br)c1C(=O)N/N=C/c1ccc(OS(=O)(=O)c2ccccc2)cc1	20.6 µM [falling, partial curve, poor fit]	–
C/C(CC(=O)NC1CCCCCC1)=N\NC(=O)c1cnccn1	18.4 µM [falling, single point]	–
O=C1c2ccccc2/C(=C\c2ccc3[nH]ccc3c2)N1c1ccccc1	20.6 µM [rising, partial curve, poor fit]	–
Cc1ccc(S(=O)(=O)Nc2ccc(NC(=O)/C=C/C(=O)O)cc2)cc1	0.708 µM [rising, full curve, poor fit]	–
Cc1ccc(NC2Nc3cc(C)nn3S2)c(C)c1 (stereo unspecified)	20 µM [rising, partial curve, poor fit]	–
CC(=O)N(C(C)=O)n1c(C)nc2sc3c(c2c1=O)CCCC3	17.8 µM [falling, partial curve, poor fit]	–
CCOC(=O)c1cc2cc(OCc3ccccc3)ccc2nc1C	3.55 µM [rising, single point]	–
CCc1ccc(N2CC(C(=O)OCC(=O)c3c(N)n(CC(C)C)c(=O)n(C)c3=O)CC2=O)cc1 (stereo unspecified)	7.31 µM [rising, partial curve]	–
COc1ccccc1C(=O)Nc1cccc(N(C)S(C)(=O)=O)c1	6.51 µM [rising, single point]	–
O=C(NCC1CCN(C(=O)c2ccc([N+](=O)[O-])cc2)CC1)c1ccc([N+](=O)[O-])cc1	3.55 µM [falling, partial curve, poor fit]	–
Nc1nc2nc(-c3ccccc3)cc(C(F)(F)F)c2s1	3.98 µM [rising, partial curve, poor fit]	–
N=c1n(CC(=O)c2cccc([N+](=O)[O-])c2)c2ccccc2n1Cc1ccccc1	35.5 µM [falling, single point]	–
Cc1ccc[n+](CC(=O)Nc2ccc([N+](=O)[O-])cc2Cl)c1	0.517 µM [rising, full curve, poor fit]	–
CCOC(=O)c1sc(=NC(=O)c2cccc(Br)c2)n(C)c1C	8.91 µM [falling, partial curve]	–
COC(=O)c1ccc2c(=O)n(CCCCCC(=O)N3CCN(c4cc(C)ccc4C)CC3)c(=O)[nH]c2c1	7.08 µM [falling, full curve, poor fit]	–
c1ccc2oc(-c3ccc4nc[nH]c4c3)nc2c1	16.4 µM [falling, single point]	–
CCc1cc2ccc(C)cc2nc1SCC(=O)Nc1c[nH]c(=O)[nH]c1=O	11.2 µM [falling, partial curve, poor fit]	–
Cc1ccccc1Nc1nc(NCc2ccco2)c2ccccc2n1	35.5 µM [falling, single point]	–
FC(F)(F)c1cc(-c2ccco2)nc(NCc2cccnc2)n1	12.6 µM [falling, single point]	–
CC1(c2ccccc2Cl)NC(=O)N(CC(=O)N2CCc3ccccc3C2)C1=O (stereo unspecified)	14.6 µM [falling, partial curve, poor fit]	–
O=C(Nc1ccccc1C(=O)N1CCCCC1)c1cccs1	3.16 µM [falling, single point]	–

Compound	AC50 [1]	AC50 [2]
CCCCC(CC)CNC(=O)CCCCn1c(=O)[nH]c2ccsc2c1=O (stereo unspecified)	35.5 µM [falling, single point]	–
COC(=O)[C@H](CCSC)NC(=O)Nc1cc(OC)cc(OC)c1	0.794 µM [rising, full curve, poor fit]	–
CN(C)c1ccc(/C=C/C(=O)c2ccccc2)cc1[N+](=O)[O-]	20.6 µM [falling, single point]	–
O=[N+]([O-])c1ccccc1N/N=C1\CC2CC=CC12 (stereo unspecified)	35.5 µM [rising, single point]	–
O=C(OCC(=O)N(CCc1ccccc1)Cc1ccccc1)c1ccccc1NCCO	11.2 µM [falling, partial curve, poor fit]	–
Cc1ccc(C(=O)CSc2nnnn2C(C)C)c(C)c1	20.6 µM [rising, single point]	–
CCOc1ccccc1NC(=O)c1cc(-c2cc(OC)c(OC)c(OC)c2)nc2ccccc12	2.51 µM [falling, partial curve, poor fit]	–
COc1ccc2c(=O)c3c(=O)n(-c4ccccc4)c(-c4ccco4)nc3oc2c1	0.58 µM [falling, full curve]	–
O=C(CCSc1ccccc1)NC1CCCCCC1	12.6 µM [falling, partial curve]	–
CCOc1ccc(S(=O)(=O)Nc2ccccc2C(=O)Nc2ccccc2N2CCOCC2)cc1	0.731 µM [rising, partial curve, poor fit]	–
CCNS(=O)(=O)c1ccc(NC(=O)Nc2ccc3c(c2)OCO3)cc1	35.5 µM [falling, partial curve, poor fit]	–
CCCC(=O)OCC(=O)c1[nH]c(C)c(C(C)=O)c1C	17.8 µM [rising, partial curve, poor fit]	–
CCOC(=O)C1=CN(Cc2ccco2)S(=O)(=O)N(CC)C1c1ccc(C(F)(F)F)cc1 (stereo unspecified)	18.4 µM [falling, partial curve, poor fit]	29.1 µM [rising, partial curve, poor fit]
CC(C)(C)NC(=O)C(=O)NN=C1CCCCCC1	0.398 µM [rising, full curve, poor fit]	–
O=C(Nc1nccs1)c1cc2c(s1)-c1ccccc1OC2	2.06 µM [falling, full curve, poor fit]	–
CC[C@@H](C)[C@H](NC(=O)CCc1c(C)c2cc3c4c(oc3c(C)c2oc1=O)CCCC4)C(=O)O	1.12 µM [rising, partial curve, poor fit]	3.55 µM [falling, partial curve]
CCOc1cc(CNCCO)cc(Br)c1OCc1ccc(Cl)cc1	12.6 µM [falling, partial curve]	–
CCOC(=O)c1ccc(NC(=O)C(=O)NCC2CCCO2)cc1 (stereo unspecified)	11.2 µM [falling, partial curve, poor fit]	–
COc1ccc(-c2cc(N)n(S(=O)(=O)Cc3ccccc3)n2)c(OC)c1	23.1 µM [rising, partial curve]	–
COc1ccc(NC(=O)CN(C)Cc2cccs2)cc1Cl	8.91 µM [rising, partial curve]	–
Cc1cc(N/N=C/c2ccccc2)nc(N2CCOCC2)n1	12.6 µM [falling, single point]	–

Reprinted at random: two entries already listed
Compound	AC50 [1]	AC50 [2]
CCc1ccc(N2CC(C(=O)OCC(=O)c3c(N)n(CC(C)C)c(=O)n(C)c3=O)CC2=O)cc1 (stereo unspecified)	7.31 µM [rising, partial curve]	–
O=C(NCC1CCN(C(=O)c2ccc([N+](=O)[O-])cc2)CC1)c1ccc([N+](=O)[O-])cc1	3.55 µM [falling, partial curve, poor fit]	–

Following part:

Compound	AC50 [1]	AC50 [2]
CCCCn1nc(NC(=O)COC)c2cc3ccc(C)cc3nc21	15.8 µM [falling, single point]	–
COc1cc(C(=O)Nc2ccc3oc(-c4cccnc4)nc3c2)cc(OC)c1OC	0.708 µM [rising, full curve, poor fit]	–
COc1cc2c(cc1NC(=O)COCC(=O)O)oc1ccccc12	10 µM [falling, partial curve]	–
Cc1ccc(NC(=O)c2ccc(S(=O)(=O)N3CCOCC3)cc2)c(C)c1	0.0891 µM [rising, full curve, poor fit]	–
C/C(=N\NC(=O)c1c(Cl)cnn1C)c1ccc(NC(=O)c2ccncc2)cc1	18.4 µM [falling, single point]	–
Cc1ccc(Nc2ncnc3sc(C)c(C)c23)cc1C	29.1 µM [falling, single point]	–
O=C(COc1cccc2c1CCN(Cc1ccc(Br)cc1)C2=O)N1CCOCC1	7.94 µM [falling, partial curve]	–
N/C(=N\C(=S)Nc1ccccc1)c1ccccc1	10 µM [falling, single point]	–
COCCNc1c(-c2ccc(O)cc2)nc2ccc(Cl)cn12	2.31 µM [falling, partial curve, poor fit]	–
O=C(NCc1ccco1)c1ccc2ccccc2c1	16.4 µM [falling, partial curve]	–
CCc1nnc(NC(=O)CSc2nnc(-c3c[nH]c4ccccc34)n2CC)s1	0.631 µM [falling, full curve, poor fit]	–
O=C(O)CSCC(=O)Nc1cccc(C(F)(F)F)c1	20.6 µM [rising, single point]	–
S=C(Nc1cccc(Cl)c1)NC1CCCCC1	1.41 µM [rising, partial curve, poor fit]	–
CCCCN(Cc1nc2ccccc2c(=O)[nH]1)C(=O)CN1C(=O)NC2(CCCCC2)C1=O	1.64 µM [rising, full curve, poor fit]	–
COc1cc(Br)c(/C=C/c2ccc3cccc(O)c3n2)cc1OC	7.08 µM [rising, full curve, poor fit]	10 µM [falling, partial curve, poor fit]
CCCCN(C)CCNC(=O)c1ccc(Cn2c(=S)[nH]c3ccc(Br)cc3c2=O)cc1	7.08 µM [falling, partial curve, poor fit]	–
CCOC(=O)c1cc(-c2ccccc2)nc2c1c(C)nn2-c1ccccn1	0.00517 µM [rising, full curve, poor fit]	–
CCOC(=O)c1ccc(NCc2ccc(N(C)C)cc2)cc1	0.282 µM [falling, full curve]	–
Cn1cccc1/C=N/n1cnnc1	23.1 µM [rising, single point]	–
COc1ccc(Nc2nc3ccc(C)cn3c(=O)c2/C=N/O)cc1	5.01 µM [rising, full curve, poor fit]	–
O=C(Cc1coc2ccc3ccccc3c12)Nc1nnc(C2CC2)s1	7.08 µM [falling, partial curve, poor fit]	–
